Values of other authors as cited in patent US8889130B2, “Treatment of osteoarthritis and pain” (Abbvie Inc., priority 2011, dated 2014).
For at least one compound, name, drawing or mass did not settle the structure.

How the values were obtained:
[1] = system: Male SV129 mice; details: literature (Silva et al., Trans ORS 2009); cited from earlier work
[2] = system: human OA patients; details: literature (Brandt et al. 2005); cited from earlier work

C[C@H]1c2cccc(O)c2C(=O)C2=C(O)[C@]3(O)C(=O)C(C(N)=O)=C(O)[C@@H](N(C)C)[C@@H]3[C@@H](O)[C@@H]21 [Doxycycline]
cartilage degradation in the DMM model of osteoarthritis [1]: prevent cartilage degradation | cartilage degradation in a human clinical trial [2]: prevent cartilage degradation
